Measurements taken from PubChem BioAssay AID242 (DTP/NCI, 2004).
The list shows only some results of the screen, not a fair sample: it covers a few groups of compounds. Not every dose and run of a compound is shown. T/C is the treated group as % of the vehicle group. For survival time, this PubChem deposit counts one and a half times the control or more as active, and values a quarter to a half above the control carry no call in these data; other NCI protocols may use other cut-offs. Schedule codes are those of the source, taken here to give the interval after Q, in days (D) or hours (H), and the number of doses after X.

System: BDF1 mice, Lymphoma 8 ip, survival T/C
Experiment: NCI In Vivo Anticancer Drug Screen. Data for tumor model Lymphoma 8 (intraperitoneal) in B6D2F1 (BDF1) mice
Details: T/C endpoint: survival time, mean or median, schedule: Q01DX010 (ip), vehicle: saline, higher T/C = longer survival
Method: The antitumor activity of compounds was measured in mice bearing transplantable tumors. Survival or tumor size were measured and the results are expressed as the measurement made in the treated group (T) divided by the measurement made in the vehicle treated control group (C). The tumor model used in this assay is Lymphoma 8 (intraperitoneal) in B6D2F1 (BDF1) mice

**Q.** `NC1CCCCC1.O=P(O)(N(CCCl)CCCl)N1CC1` was tested. Which T/C (dose: 2.5 mg/kg/injection) did it give?
**A.** 121 % of control

**Q.** And the T/C (dose: 5.0 mg/kg/injection)?
**A.** 110 % of control

**Q.** What about the T/C (dose: 10.0 mg/kg/injection) of the same molecule?
**A.** 125 % of control

**Q.** What about the T/C (dose: 20.0 mg/kg/injection) of the same molecule?
**A.** 271 % of control
